In article PMC4166935, “Toward Biophysical Probes for the 5-HT3 Receptor: Structure−Activity Relationship Study of Granisetron Derivatives” (Journal of Medicinal Chemistry, 2010):
The structures given here were assigned with low confidence; some may be wrong.

The chains behind the UniProt entries cited, without tags or fusion partners. Residues count along the entry.
UniProt P46098, 24-478 limits assumed: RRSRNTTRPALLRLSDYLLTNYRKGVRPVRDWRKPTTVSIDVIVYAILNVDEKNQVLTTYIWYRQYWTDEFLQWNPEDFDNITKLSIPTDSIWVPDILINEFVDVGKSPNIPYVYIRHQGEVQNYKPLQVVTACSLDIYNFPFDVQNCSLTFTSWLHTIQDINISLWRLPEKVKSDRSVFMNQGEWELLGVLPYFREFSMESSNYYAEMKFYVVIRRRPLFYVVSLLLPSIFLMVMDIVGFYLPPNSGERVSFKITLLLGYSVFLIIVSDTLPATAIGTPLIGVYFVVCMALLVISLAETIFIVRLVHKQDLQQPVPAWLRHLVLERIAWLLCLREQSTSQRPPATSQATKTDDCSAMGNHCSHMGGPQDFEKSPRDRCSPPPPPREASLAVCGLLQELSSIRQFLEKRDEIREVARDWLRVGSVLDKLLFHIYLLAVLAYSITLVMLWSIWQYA

Biological target: h5-HT3AR in HEK293 cells (Homo sapiens, UniProt P46098)
Experiment: Confocal labeling of HEK293 cells stably transfected with h5-HT3AR with fluorescent probe 16
Settings: 10 nM 16 for 10 min, without quipazine, confocal microscope

CC1=CC(C)=[N+]2C1=Cc1ccc(CCC(=O)NCCCn3nc(C(=O)NC4CC5CCCC(C4)N5C)c4ccccc43)n1[B-]2(F)F (stereo not shown)
fluorescent labeling of cells: Fluorescence is observed in all cells
